Reference: the supplement of paper PMC5949888
Most values lie at the floor of the assay. Slopes are relative: functional sequences can read slightly below zero.

system: Saccharomyces cerevisiae PS128 hsf1 delta, HSF1(1-493) fusion; experiment: growth estimate (transactivation domain function in HSF1 fusion, heat-shock survival) (a.u. (slope of normalised read count over time)); higher = stronger growth at 37°C, i.e. more transactivation activity; settings: library: random library
Protocol: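 Random 60-nt DNA library encoding peptides of up to 20 aa, fused to the C-terminus of yeast HSF1 residues 1-493 (C-terminal TAD deleted) and expressed from the native HSF1 promoter on a CEN plasmid in hsf1-deleted S. cerevisiae PS128. Cells were selected at 37°C on -trp 5-FOA plates for 0, 2, 4, 6 and 8 days and amplicons were sequenced. Growth estimate is the slope of a robust linear fit of total-sum-normalised read counts (normalised to the first time point) over time, using at least 2 replicates. Sequences are classed functional (TAD activity) above a threshold of -0.13, set from stop-codon control sequences.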

Substance | growth estimate
LGRDRVWHEAGTYPMERP | -0.229
QFPTRSVSERLALTLWLYRA | < -0.25
VFTYFPDVPAFIASAGILWP | < -0.25
KGVLPRTR | < -0.25
SPGI | < -0.25
RACTFR | < -0.25
RAISAFAGGNGELEDKACGP | < -0.25
DSNSHTSLRGKVQLPAP | < -0.25
FRDKFP | < -0.25
TVILRCLQPPSVPSLAELGP | < -0.25
PNVASA | < -0.25
GKRTSFFTSKGGALFKGRRH | < -0.25
PRLINSMGGDYRIRPLRGRI | < -0.25
IVSSVS | < -0.25
YSIC | < -0.25
VHEPNLFYAQCKSYPQVWSL | < -0.25
GFPCDTHTYLLVSVTRGVAL | < -0.25
GWQSPATAGYFAPRTTSLLV | < -0.25
PMTVNTEKRLD | < -0.25
VLSAGDVAWLSPGCRDG | -0.217
VQRPYPLGGMGDVLVLCICK | < -0.25
YPLCIGAVRFQRNIRFRTGL | < -0.25
GVGFG | < -0.25
NRSGISGNSFHGLVVVVF | < -0.25
KLV | < -0.25
LPGPGDWVSA | < -0.25

Three records picked at random from the list so far, as already listed:
Substance | growth estimate
NRSGISGNSFHGLVVVVF | < -0.25
QFPTRSVSERLALTLWLYRA | < -0.25
GFPCDTHTYLLVSVTRGVAL | < -0.25

A second format for part of the listing above:
Substance	growth estimate
KGVLPRTR	< -0.25
PNVASA	< -0.25
IVSSVS	< -0.25
GFPCDTHTYLLVSVTRGVAL	< -0.25

(further entries)

Substance | growth estimate
SASGPVVRRHVGREL | < -0.25
GCIG | < -0.25
GSPNPGFVSSPSLLSTTSWS | < -0.25
YLGKVRGWTRTSGHPSLPLG | < -0.25
FIIPDRTDDRILARFGLSSN | < -0.25
KVECHACYPAKRNKIAGIRA | < -0.25
GMQLKADHWHGLITF | < -0.25
LSF | < -0.25
SGDRPPPRSDCHQYGSECGA | < -0.25
NVTARVTADVPIRACGLSKL | < -0.25
RGHTHGVCYLSCRYRFFRCN | < -0.25
IRPTGFTHR | < -0.25
AYIITGIVRISVLADAHAGP | < -0.25
HKGKSLT | < -0.25
LHAFLSSYV | < -0.25
PTGSSWPQGGGVMADEPQVA | < -0.25
LYSRIHRVAHIMIGLSQLVS | < -0.25
WRNTFVTKRARGRWPSTV | < -0.25
RSRI | < -0.25
VLLSACCCETSAYGLRKQQT | < -0.25
LFVNRKSTTGCRSL | < -0.25
IYVQAGNLAHKTSF | -0.246
RAIILVQVVTALPSLLKAHN | < -0.25
APRVRRWALV | < -0.25
IYTRCNCTPL | < -0.25
PSCRVMRGKSICVAAHRS | < -0.25

For convenience, part of the list above:
Substance | growth estimate
NVTARVTADVPIRACGLSKL | < -0.25
RGHTHGVCYLSCRYRFFRCN | < -0.25

More results

Substance | growth estimate
GPRVV | < -0.25
LIALKWVPGHGYAILRTTQT | < -0.25
RWNGPADKV | < -0.25
GRNIDFRIYASGLVKGGFKE | < -0.25
PPLRRVQMKPLRTGSLNLVK | < -0.25
LVDRLKGVSIR | < -0.25
RVGPRCIGCSWHCLYRSSLY | < -0.25
ILALID | < -0.25
PWNAGKRAMFYDPYLGIHSS | < -0.25
GKSCDAGALDWARLKRSVNT | < -0.25
SRHYSPYGCCAQSLPLLSP | < -0.25
LRRPRNVGALLRNLIPDLKV | < -0.25
GRLVSGVKAWLRLVRRRAKN | < -0.25
LGIITLSRVGR | < -0.25
ILLTGAFCTFTWGQVLCHGG | < -0.25
TYCIS | < -0.25
TQFP | < -0.25
VPRRSV | < -0.25
EMGTATHVKCNSRKIEGNQP | < -0.25
ESVWDRAASRATRHAMYYT | < -0.25
LIQIAAWAVPLGSRSFVSTN | < -0.25
LQFGSN | < -0.25
AGVPGRMSYTSKVVRDVEVA | < -0.25
QGWESSP | < -0.25
VIESRNQGVCFQRVPEKRQA | < -0.25
DWLSRGDSLR | < -0.25

Substance | growth estimate
GLRMV | < -0.25
DTASWSAGFTGSAGFFKPLG | < -0.25
TKRSTITRAAGDAVWRL | < -0.25
TYRVKRAKGIGNTEVHVRPR | < -0.25
RWMRKLRKEGEDADFMIRHR | < -0.25
PSGDQGVHKDQSRVKGILAH | < -0.25
ESPNRVMIDSRPAR | < -0.25
DRHPAQRRRTRVVPALWEVG | < -0.25
LGHCLAPPRE | < -0.25
ISIWLRGLCLRSSQDQGPGS | < -0.25
SLRHAHALVGEGCG | < -0.25
VYDA | < -0.25
FKCYR | < -0.25
VSGGIKFTARWIGAGNRPSP | < -0.25
KTNPRPRVTTYGMPMPVGRS | < -0.25
PSFNEDQV | < -0.25
GQWEESRQMETSTKDYKTV | < -0.25
LNGISI | < -0.25
LCRRLRTYYHGREAAHGSL | < -0.25
CNRGTVACLLLGEVASQ | < -0.25
KSLID | < -0.25
RGFWKS | < -0.25
HSGSSREPSVL | < -0.25
ACCPLVEEMTHILKLQESRQ | < -0.25
FYGNDFYGIWVRTQVYR | < -0.25
WTCSAA | < -0.25

Substance | growth estimate
ARSVTPTGHRCVLLCRRSTH | < -0.25
TTEGQPAQGERIKRDCPPPS | < -0.25
GPRPRVAAIAGQEPYIRIRQ | < -0.25
LVNNSMVTSGGLPSMQRSV | < -0.25
DSMCRWTV | < -0.25
RKHRDPSIGWARPSHNPFTS | < -0.25
IEASQNSP | < -0.25
RLTRRCAVTTMLGRGTAFWT | < -0.25
GMS | < -0.25
HDGRVNWLVYSICSWLRV | -0.243
YVWRVRVFGRKPMVSTRDRR | < -0.25
DRSAIRDERSRLYRLVDISG | < -0.25
FLGRGNHTGLDELTPLSNLA | < -0.25
RSRCPLISLAAHPWLGHI | < -0.25
WGYR | < -0.25
HTGGMFPHYSGPCYAGCGVS | < -0.25
GTASD | < -0.25
VFEVLLSFSFEVMLSNDRYL | < -0.25
FTTFGFGRGMCATSQAAATF | < -0.25
RILRACCGLSRFPSRRHIRS | < -0.25
FVDTAHCLASTGYRTAHEGK | < -0.25
LAWVAAAFGCSWWQIATRNW | < -0.25
RRVDFPNSLKKAGSNTPGRT | < -0.25
VVGHHAYSPGACSF | < -0.25
VTNGAIKRGFRIGALMCPGR | < -0.25
HPAL | < -0.25

Substance | growth estimate
AGSPI | < -0.25
PCHG | < -0.25
SVILRPEHSIVLDVVHGLLH | < -0.25
IQGARARPR | < -0.25
QHILTPFSDIICRRQKISSR | < -0.25
HPENASRRGAEEESS | < -0.25
CMILPMSIVEQKD | < -0.25
ASLNTVRSAGALGTCISTVA | < -0.25
FLKIFVLSLGLRVKCRLLKR | < -0.25
SGLVDLARQC | < -0.25
TKISL | < -0.25
VSGPATIAVPYWWGERCR | < -0.25
IYKRRCSGQ | < -0.25
TQQAIV | < -0.25
HVWFTEKVQVWEEDAPLHRL | < -0.25
PAGGFGPDSRRVYLNPGSFS | < -0.25
QKIPSFQSGCCF | < -0.25
VTS | < -0.25
WGHRGMEWALAKRRLRGSHY | < -0.25
CCV | < -0.25
NSGIEESSRET | < -0.25
SVHRGASRRLTL | < -0.25
